Reference: PubChem BioAssay AID1671195 (Yale University, 2021)

Aim: 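Regulators of LDL receptor activity judged by labelled LDL uptake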 (primary screen)
Cell system: human Huh7 hepatoma cells
Knock-down reagent: siRNA pool against human genes, 18 nM
Duration: about 2 to 2.5 days of knockdown, then 8 h LDL uptake
Conditions: DiI-labelled LDL at 30 µg/ml for 8 h, in lipoprotein-deficient serum medium
Detection: 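Fluorescent LDL signal imaged in cells, scaled to the plate median, robust z-score for each replicate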
Direction: robust z-score: higher = more LDL uptake after knockdown
Call rule: 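Active when two or more replicates show a robust z-score above 2 or below -2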
The deposit covers about 22,000 reagents; shown is a part drawn at random. About 1,510 of all reagents (6.9%) count as active. 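Active includes knockdowns raising or lowering LDL uptake; positive z-scores mean more uptake, negative mean less.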

target | robust z-score, replicate 1 | robust z-score, replicate 2 | robust z-score, replicate 3 | Outcome
NMNAT3 | 1.13 | 1.16 | 0.327 | inactive
API5 | 4.25 | 1.34 | 2.78 | active
ERVW-1 | 5.75 | 4.63 | -0.101 | active
VPS37D | -0.583 | -0.534 | -0.53 | inactive
TPTE2 | 0.298 | 1.08 | 1.07 | inactive
MRTFA | -0.0855 | 0.287 | -0.144 | inactive
PHYKPL | -0.742 | -0.376 | -0.17 | inactive
RXRA | -0.0689 | -0.0221 | 0.372 | inactive
FLYWCH1L (retired record) | 0.54 | 0.577 | 0.236 | inactive
ODAM | 0.862 | 1.56 | -0.335 | inactive
PPP1R12A | 1.36 | 1.22 | 2.2 | inactive
SASH1 | -0.283 | 0.323 | -1.09 | inactive
LOC440339 (retired record) | 0.776 | 2.51 | 1.15 | inactive
H2AC16 | 0.161 | 2.3 | 0.6 | inactive
UPK1B | 0.726 | 0.0961 | -0.622 | inactive
LCA5 | -0.764 | -0.993 | -1.59 | inactive
P4HTM | -1.55 | -1.41 | -1.96 | inactive
LOC440357 (retired record) | -0.983 | -1.04 | -1.36 | inactive
CERS4 | -0.0471 | -0.717 | -0.72 | inactive
TCF12 | -0.404 | -0.128 | -0.44 | inactive
HRC | 0.637 | 0.595 | 0.0662 | inactive
RPL23P5 | 0.488 | 0.714 | -0.0279 | inactive
MRPL32 | -0.156 | -0.562 | -0.113 | inactive
GPR135 | 1.02 | 0.401 | 1.55 | inactive
PRPH2 | -0.00362 | 2.27 | 1.32 | inactive
TNFRSF17 | -1.11 | -0.804 | -1.5 | inactive
GON7 | -1.29 | -0.894 | -0.51 | inactive
DENND2D | 0.0453 | 0.677 | 0.644 | inactive
LOC441667 (retired record) | -0.491 | -0.598 | -0.106 | inactive
SSX5 | -2.13 | -2.01 | -2.46 | active
GABPA | 1.45 | 0.663 | 0.553 | inactive
TCEAL2 | 2.37 | 0.97 | 1.68 | inactive
ADGRB3 | -1.16 | -1.56 | -1.84 | inactive
TMEM61 | -0.588 | -0.288 | -0.876 | inactive
TMEM219 | 0.796 | 0.665 | 0.318 | inactive
LOC392584 (retired record) | -1.27 | -0.718 | -0.858 | inactive
MYRF | 0.459 | 0.593 | -0.297 | inactive
POMK | 2.45 | 2.11 | 1.78 | active
CCNG2 | -0.882 | 0.0379 | -0.636 | inactive
TEX47 | 0.0313 | -0.0805 | 0.158 | inactive
FAM86B1 | -0.153 | -0.858 | 0.136 | inactive
LOC441696 (retired record) | -0.654 | -1.12 | -0.871 | inactive
FAM240C | 0.626 | 0.504 | 0.475 | inactive
SERPINA1 | 0.833 | -0.354 | 0.623 | inactive
ZNF562 | 0.542 | 0.691 | 0.782 | inactive
GIMAP1 | -0.883 | -0.5 | -0.689 | inactive
CENPO | -0.763 | -0.109 | 0.102 | inactive
C4orf36 | 1.28 | 0.61 | 0.413 | inactive
MIGA1 | -0.839 | -0.902 | -0.399 | inactive
CDHR4 | -0.32 | -0.663 | -0.18 | inactive
NKG7 | 0.714 | 1.16 | 0.834 | inactive
C11orf87 | -1.51 | -0.978 | -1.65 | inactive
PTP4A3 | -1.17 | -1.26 | -1.23 | inactive
LOC441842 (retired record) | 3.85 | 2.51 | 3.24 | active
NTM-AS1 | 1.3 | 0.789 | 0.294 | inactive
LOC401054 (retired record) | 0.723 | 0.532 | 0.216 | inactive
HTATSF1 | 0.236 | -1.22 | -0.0937 | inactive
ATF6 | -0.591 | -0.795 | -0.398 | inactive
BBC3 | -2.49 | -1.51 | -1.4 | inactive
MZF1 | 1.23 | 1.35 | 2.01 | inactive
PGAP2 | 1.44 | -0.28 | 1.55 | inactive
RMDN3 | -1.96 | 0.0792 | -0.374 | inactive
SHISA3 | 0.67 | -0.313 | 0.41 | inactive
SNAI2 | -1.26 | -0.525 | -0.916 | inactive
S100P | 0.149 | 0.23 | 0.0547 | inactive
VSTM2A | -0.522 | -0.398 | -0.399 | inactive
EBF3 | -0.213 | -0.276 | -0.127 | inactive
DNM2 | -0.652 | -0.882 | -0.779 | inactive
OR2B2 | -1.77 | -1.7 | -1.71 | inactive
PRDM7 | -0.5 | -1.1 | -0.395 | inactive
TBXT | -0.312 | -0.554 | -0.529 | inactive
OR10H5 | -0.73 | -0.712 | -0.382 | inactive
POLR1A | 0.367 | 0.497 | -0.108 | inactive
GLDN | -0.0846 | -0.383 | 0.0557 | inactive
RNF13 | -0.569 | -1.93 | -0.92 | inactive
CNOT11 | -0.547 | -0.383 | -0.57 | inactive
ASTILCS | -0.754 | -0.0319 | -0.418 | inactive
JMJD6 | -0.328 | -0.547 | -0.806 | inactive
MC5R | 1.22 | 1.87 | 0.745 | inactive
PRSS1 | 1.09 | 0.0364 | 1.49 | inactive
GCKR | -0.317 | -0.669 | -0.15 | inactive
LINC00304 | 1.31 | 0.969 | 0.423 | inactive
LMAN1 | 0.117 | -0.0307 | 0.499 | inactive
LBHD1 | 0.441 | 0.464 | 0.521 | inactive
PSPN | -1.98 | -0.244 | -2.37 | active
WWC2-AS2 | 0.924 | 0.547 | 1.05 | inactive
LCE3D | -0.156 | -0.0102 | 0.203 | inactive
